Test results as given in patent US20160310619A1, “SCREENING METHODS FOR ACETYLCHOLINE RELATED BIOACTIVE MATERIALS USING INHERITED COLOR PREFERENCE OF FISH” (GENOMIC DESIGN BIOENGINEERING COMPANY, priority 2014, published 2016).
For at least one compound, name, drawing or mass did not settle the structure.

Tested on: zebrafish
Test: Screening for acetylcholine neurotransmission-related materials by innate color preference (blue/yellow color maze)
Format: in vivo, zebrafish (Danio rerio)
Conditions: acetylcholinesterase inhibitors vs egg water; five days old fish; FIG. 9(A)-(C)

SMILES: COc1ccc2c3c1O[C@H]1C[C@@H](O)C=C[C@@]31CCN(C)C2 [galantamine]
- change in color preference (number of young zebrafish in blue and yellow sections): moved to yellow that is their avoided color
